Experimental data as given in US20040106647A1, “Modulators of Cdk9 as a therapeutic target in cardiac hypertrophy” (priority 2002, published 2004).
Results are given in words; binding and its absence hold for the method and conditions named. In cells and extracts the contact can be indirect. Some entries that bind do so weakly or less than the wild type.

Sequences of proteins named here, by UniProt entry; tags and fusion partners are left off. A change or cut given only in a name is not applied to a line headed by its entry. A line that says so, or that is headed by a name, gives the form on record, which may keep a tag or linker.
UniProt Q641Z4: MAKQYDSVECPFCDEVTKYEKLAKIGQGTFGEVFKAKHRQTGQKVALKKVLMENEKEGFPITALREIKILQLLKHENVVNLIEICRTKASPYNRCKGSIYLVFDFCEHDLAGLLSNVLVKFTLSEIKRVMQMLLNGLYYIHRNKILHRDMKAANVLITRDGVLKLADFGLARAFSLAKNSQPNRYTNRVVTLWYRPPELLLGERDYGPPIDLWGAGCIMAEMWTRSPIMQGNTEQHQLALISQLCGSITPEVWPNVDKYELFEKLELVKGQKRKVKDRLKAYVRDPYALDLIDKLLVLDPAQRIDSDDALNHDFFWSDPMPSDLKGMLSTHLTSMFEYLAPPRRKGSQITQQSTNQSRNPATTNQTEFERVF
cyclin T1 (endogenous, neonatal rat ventricular myocytes) (A0ABK0LWR1, form named): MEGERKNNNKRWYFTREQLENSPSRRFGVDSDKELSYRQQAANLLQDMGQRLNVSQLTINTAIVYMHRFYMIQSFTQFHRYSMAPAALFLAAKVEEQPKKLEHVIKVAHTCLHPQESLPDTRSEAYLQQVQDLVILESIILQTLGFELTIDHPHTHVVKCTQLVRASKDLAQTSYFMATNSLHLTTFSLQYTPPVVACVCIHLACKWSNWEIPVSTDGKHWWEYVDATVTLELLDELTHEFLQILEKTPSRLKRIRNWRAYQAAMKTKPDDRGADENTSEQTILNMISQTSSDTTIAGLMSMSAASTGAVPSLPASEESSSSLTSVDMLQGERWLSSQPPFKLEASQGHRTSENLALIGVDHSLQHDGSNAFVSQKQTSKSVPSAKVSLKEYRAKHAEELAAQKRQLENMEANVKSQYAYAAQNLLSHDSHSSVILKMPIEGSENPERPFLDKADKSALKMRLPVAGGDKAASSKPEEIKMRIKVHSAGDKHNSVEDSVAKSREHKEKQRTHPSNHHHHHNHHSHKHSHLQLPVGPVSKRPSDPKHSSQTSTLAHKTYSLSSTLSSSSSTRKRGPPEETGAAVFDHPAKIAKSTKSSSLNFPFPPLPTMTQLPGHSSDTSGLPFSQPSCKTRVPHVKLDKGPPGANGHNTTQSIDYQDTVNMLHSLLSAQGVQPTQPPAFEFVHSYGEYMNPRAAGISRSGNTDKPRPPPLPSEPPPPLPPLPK

Molecular target: cyclin dependent kinase 9 (Cdk9) (endogenous, neonatal rat ventricular myocytes) (rat) (UniProt Q641Z4)
Experiment: co-immunoprecipitation and Western blot from lysates of rat ventricular myocytes with or without ET-1 for 15 min

binding: binds
Substance: cyclin T1 (endogenous, neonatal rat ventricular myocytes) (from UniProt A0ABK0LWR1 1-724)
